Measurements taken from US20020086278A1, “CHROMOGENIC MEDIA CONTAINING BLOOD OR HEMIN” (priority 1999, published 2002).

Experiment: Color contrast of chromogen on blood plate

Compound: Oc1c[nH]c2ccc(Br)c(Cl)c12 [5-Bromo-4-chloro-3-indoxyl]
- Contrast on Blood Plate: Good
- Colony (colony color of chromogen): blue
